Some entries share one result that the patent states for a list of compounds.
The molecules below were run on Pyricularia oryzae (assay: not given). Conditions: 31 ppm; measured at 405 nm 7 days after inoculation; active compound-free control = 100%.
Format: cell-based

Compound	growth (relative growth in % of the pathogen)
CC(C)(C)/C=C/c1ccc(C(O)(Cn2cncn2)C2CC2)c(Cl)c1 (centres unmarked) [Compound I-2]	≤ 19%
CC(C)(C)C(O)(Cn1cncn1)c1ccc(C=CC(F)(F)F)cc1 (centres unmarked) [Compound I-48]	≤ 19%
CC=Cc1ccc(C(C)(O)Cn2cncn2)c(C(F)(F)F)c1 (centres unmarked) [Compound I-42]	≤ 19%
C#CC=Cc1ccc(C(O)(Cn2cncn2)C2CC2)c(Cl)c1 (centres unmarked) [Compound I-43]	≤ 19%
CC(C)=C(C)c1ccc(C(O)(Cn2cncn2)C2CC2)c(Cl)c1 (centres unmarked) [Compound I-33]	≤ 19%
CC(C)(C)C(O)(Cn1cncn1)c1ccc(C=CC2CC2)cc1C(F)(F)F (centres unmarked) [Compound I-27]	≤ 19%
CC(C)(C)C=Cc1ccc(C(O)(Cn2cncn2)C2CC2)cc1 (centres unmarked) [Compound I-10]	≤ 19%
OC(Cn1cncn1)(c1ccc(C=CC2CC2)cc1)C1CC1 (centres unmarked) [Compound I-6]	≤ 19%
OC(Cn1cncn1)(c1ccc(C2=CCCCC2)cc1Cl)C1CC1 (centres unmarked) [Compound I-35]	≤ 19%
CC(C)C=Cc1ccc(C(O)(Cn2cncn2)C2CC2)c(Cl)c1 (centres unmarked) [Compound I-21]	≤ 19%
CC(C)(C)C(O)(Cn1cncn1)c1ccc(C=CC2CC2)cc1 (centres unmarked) [Compound I-28]	≤ 19%
CC(C)(C)C=Cc1ccc(C(O)(Cn2cncn2)C2CC2)c(C(F)(F)F)c1 (centres unmarked) [Compound I-11]	≤ 19%
CC(O)(Cn1cncn1)c1ccc(C=CC(F)(F)F)cc1C(F)(F)F (centres unmarked) [Compound I-49]	≤ 19%
CCC(O)(Cn1cncn1)c1ccc(C=CC(F)(F)F)cc1Cl (centres unmarked) [Compound I-51]	≤ 19%
OC(Cn1cncn1)(c1ccc(C=CF)cc1Cl)C1CC1 (centres unmarked) [Compound I-45]	≤ 19%
OC(Cn1cncn1)(c1ccc(C=CCl)cc1Cl)C1CC1 (centres unmarked) [Compound I-20]	≤ 19%
CC(O)(Cn1cncn1)c1ccc(C=CC2CC2)cc1Cl (centres unmarked) [Compound I-7]	≤ 19%
C/C=C\c1ccc(C(O)(Cn2cncn2)C2CC2)c(Cl)c1 (centres unmarked) [Compound I-1]	≤ 19%
CC=Cc1ccc(C(O)(Cn2cncn2)C(C)(C)C)cc1 (centres unmarked) [Compound I-41]	≤ 19%
OC(Cn1cncn1)(c1ccc(C2=CCCC2)cc1Cl)C1CC1 (centres unmarked) [Compound I-36]	≤ 19%

Each molecule was assayed on Phakopsora pachyrhizi (assay: Protective control of soy bean rust on soy beans caused by Phakopsora pachyrhizi (Phakpa P2), green house). Conditions: soy bean seedlings sprayed with 16 ppm, inoculated after 2 days, assessed after fourteen days; untreated plants 80% infected.
Format: in vivo

Compound	infection (% diseased leaf area)
CC(C)(C)/C=C/c1ccc(C(O)(Cn2cncn2)C2CC2)c(Cl)c1 (centres unmarked) [Compound I-2]	≤ 15%
CC(C)(C)C(O)(Cn1cncn1)c1ccc(C=CC(F)(F)F)cc1 (centres unmarked) [Compound I-48]	≤ 15%
CC(C)=C(C)c1ccc(C(O)(Cn2cncn2)C2CC2)c(Cl)c1 (centres unmarked) [Compound I-33]	≤ 15%
CC(C)(C)C=Cc1ccc(C(O)(Cn2cncn2)C2CC2)cc1 (centres unmarked) [Compound I-10]	≤ 15%
CC(C)C=Cc1ccc(C(O)(Cn2cncn2)C2CC2)c(Cl)c1 (centres unmarked) [Compound I-21]	≤ 15%
CC(C)(C)C(O)(Cn1cncn1)c1ccc(C=CC2CC2)cc1 (centres unmarked) [Compound I-28]	≤ 15%
CC(C)(C)C=Cc1ccc(C(O)(Cn2cncn2)C2CC2)c(C(F)(F)F)c1 (centres unmarked) [Compound I-11]	≤ 15%
CCC(O)(Cn1cncn1)c1ccc(C=CC(F)(F)F)cc1Cl (centres unmarked) [Compound I-51]	≤ 15%
OC(Cn1cncn1)(c1ccc(C=CCl)cc1Cl)C1CC1 (centres unmarked) [Compound I-20]	≤ 15%
CC(O)(Cn1cncn1)c1ccc(C=CC2CC2)cc1Cl (centres unmarked) [Compound I-7]	≤ 15%
C/C=C\c1ccc(C(O)(Cn2cncn2)C2CC2)c(Cl)c1 (centres unmarked) [Compound I-1]	≤ 15%

Each molecule was assayed on Septoria tritici (assay: Activity against leaf blotch on wheat caused by Septoria tritici (Septtr), microtiter plate). Conditions: 31 ppm; measured at 405 nm 7 days after inoculation; active compound-free control = 100%.
Format: cell-based

Compound	growth (relative growth in % of the pathogen)
CC(C)(C)C(O)(Cn1cncn1)c1ccc(C=CC(F)(F)F)cc1 (centres unmarked) [Compound I-48]	≤ 20%
CC=Cc1ccc(C(C)(O)Cn2cncn2)c(C(F)(F)F)c1 (centres unmarked) [Compound I-42]	≤ 20%
C#CC=Cc1ccc(C(O)(Cn2cncn2)C2CC2)c(Cl)c1 (centres unmarked) [Compound I-43]	≤ 20%
CC(C)=C(C)c1ccc(C(O)(Cn2cncn2)C2CC2)c(Cl)c1 (centres unmarked) [Compound I-33]	≤ 20%
CC(C)(C)C(O)(Cn1cncn1)c1ccc(C=CC2CC2)cc1C(F)(F)F (centres unmarked) [Compound I-27]	≤ 20%
CC(C)(C)C=Cc1ccc(C(O)(Cn2cncn2)C2CC2)cc1 (centres unmarked) [Compound I-10]	≤ 20%
OC(Cn1cncn1)(c1ccc(C=CC2CC2)cc1)C1CC1 (centres unmarked) [Compound I-6]	≤ 20%
CC(C)C=Cc1ccc(C(O)(Cn2cncn2)C2CC2)c(Cl)c1 (centres unmarked) [Compound I-21]	≤ 20%
CC(C)(C)C(O)(Cn1cncn1)c1ccc(C=CC2CC2)cc1 (centres unmarked) [Compound I-28]	≤ 20%
CC(C)(C)C=Cc1ccc(C(O)(Cn2cncn2)C2CC2)c(C(F)(F)F)c1 (centres unmarked) [Compound I-11]	≤ 20%
CC(O)(Cn1cncn1)c1ccc(C=CC(F)(F)F)cc1C(F)(F)F (centres unmarked) [Compound I-49]	≤ 20%
CCC(O)(Cn1cncn1)c1ccc(C=CC(F)(F)F)cc1Cl (centres unmarked) [Compound I-51]	≤ 20%
OC(Cn1cncn1)(c1ccc(C=CF)cc1Cl)C1CC1 (centres unmarked) [Compound I-45]	≤ 20%
OC(Cn1cncn1)(c1ccc(C=CCl)cc1Cl)C1CC1 (centres unmarked) [Compound I-20]	≤ 20%
CC(O)(Cn1cncn1)c1ccc(C=CC2CC2)cc1Cl (centres unmarked) [Compound I-7]	≤ 20%
C/C=C\c1ccc(C(O)(Cn2cncn2)C2CC2)c(Cl)c1 (centres unmarked) [Compound I-1]	≤ 20%
CC=Cc1ccc(C(O)(Cn2cncn2)C(C)(C)C)cc1 (centres unmarked) [Compound I-41]	≤ 20%
OC(Cn1cncn1)(c1ccc(C2=CCCC2)cc1Cl)C1CC1 (centres unmarked) [Compound I-36]	≤ 20%

Each molecule was assayed on Botrytis cinerea (assay: Activity against the grey mold Botrytis cinerea in the microtiterplate test (Botrci)). Conditions: 31 ppm; measured at 405 nm 7 days after inoculation; active compound-free control = 100%.
Format: cell-based

Compound	growth (relative growth in % of the pathogen)
CC(C)(C)/C=C/c1ccc(C(O)(Cn2cncn2)C2CC2)c(Cl)c1 (centres unmarked) [Compound I-2]	≤ 12%
CC(C)(C)C(O)(Cn1cncn1)c1ccc(C=CC(F)(F)F)cc1 (centres unmarked) [Compound I-48]	≤ 12%
CC=Cc1ccc(C(C)(O)Cn2cncn2)c(C(F)(F)F)c1 (centres unmarked) [Compound I-42]	≤ 12%
C#CC=Cc1ccc(C(O)(Cn2cncn2)C2CC2)c(Cl)c1 (centres unmarked) [Compound I-43]	≤ 12%
CC(C)=C(C)c1ccc(C(O)(Cn2cncn2)C2CC2)c(Cl)c1 (centres unmarked) [Compound I-33]	≤ 12%
CC(C)(C)C=Cc1ccc(C(O)(Cn2cncn2)C2CC2)cc1 (centres unmarked) [Compound I-10]	≤ 12%
OC(Cn1cncn1)(c1ccc(C=CC2CC2)cc1)C1CC1 (centres unmarked) [Compound I-6]	≤ 12%
OC(Cn1cncn1)(c1ccc(C2=CCCCC2)cc1Cl)C1CC1 (centres unmarked) [Compound I-35]	≤ 12%
CC(C)C=Cc1ccc(C(O)(Cn2cncn2)C2CC2)c(Cl)c1 (centres unmarked) [Compound I-21]	≤ 12%
CC(C)(C)C(O)(Cn1cncn1)c1ccc(C=CC2CC2)cc1 (centres unmarked) [Compound I-28]	≤ 12%
CC(O)(Cn1cncn1)c1ccc(C=CC(F)(F)F)cc1C(F)(F)F (centres unmarked) [Compound I-49]	≤ 12%
CCC(O)(Cn1cncn1)c1ccc(C=CC(F)(F)F)cc1Cl (centres unmarked) [Compound I-51]	≤ 12%
OC(Cn1cncn1)(c1ccc(C=CF)cc1Cl)C1CC1 (centres unmarked) [Compound I-45]	≤ 12%
OC(Cn1cncn1)(c1ccc(C=CCl)cc1Cl)C1CC1 (centres unmarked) [Compound I-20]	≤ 12%
CC(O)(Cn1cncn1)c1ccc(C=CC2CC2)cc1Cl (centres unmarked) [Compound I-7]	≤ 12%
C/C=C\c1ccc(C(O)(Cn2cncn2)C2CC2)c(Cl)c1 (centres unmarked) [Compound I-1]	≤ 12%
CC=Cc1ccc(C(O)(Cn2cncn2)C(C)(C)C)cc1 (centres unmarked) [Compound I-41]	≤ 12%
OC(Cn1cncn1)(c1ccc(C2=CCCC2)cc1Cl)C1CC1 (centres unmarked) [Compound I-36]	≤ 12%

These molecules were tested on Alternaria solani (assay: Preventative fungicidal control of early blight on tomatoes (Alternaria solani) (Alteso P1), green house). Conditions: tomato plants sprayed with 125 ppm, inoculated next day, assessed after 5 days; untreated plants 80% infected.
Format: in vivo

Compound	infection (% diseased leaf area)
C#CC=Cc1ccc(C(O)(Cn2cncn2)C2CC2)c(Cl)c1 (centres unmarked) [Compound I-43]	≤ 16%
OC(Cn1cncn1)(c1ccc(C2=CCCCC2)cc1Cl)C1CC1 (centres unmarked) [Compound I-35]	≤ 16%
CC(C)C=Cc1ccc(C(O)(Cn2cncn2)C2CC2)c(Cl)c1 (centres unmarked) [Compound I-21]	≤ 16%
CC(C)(C)C(O)(Cn1cncn1)c1ccc(C=CC2CC2)cc1 (centres unmarked) [Compound I-28]	≤ 16%
CC(O)(Cn1cncn1)c1ccc(C=CC(F)(F)F)cc1C(F)(F)F (centres unmarked) [Compound I-49]	≤ 16%
CCC(O)(Cn1cncn1)c1ccc(C=CC(F)(F)F)cc1Cl (centres unmarked) [Compound I-51]	≤ 16%
OC(Cn1cncn1)(c1ccc(C=CF)cc1Cl)C1CC1 (centres unmarked) [Compound I-45]	≤ 16%
OC(Cn1cncn1)(c1ccc(C=CCl)cc1Cl)C1CC1 (centres unmarked) [Compound I-20]	≤ 16%
C/C=C\c1ccc(C(O)(Cn2cncn2)C2CC2)c(Cl)c1 (centres unmarked) [Compound I-1]	≤ 16%
CC=Cc1ccc(C(O)(Cn2cncn2)C(C)(C)C)cc1 (centres unmarked) [Compound I-41]	≤ 16%

Source: patent publication US9815798B2 (priority 2014, dated 2017)
